Measurements reported in PubChem BioAssay AID1259254 (NCATS, 2017)
The deposit covers about 59,000 reagents; below is an unselected part. In the full data, about 1,550 (2.6%) were called active. 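G2 share is only a proxy for re-replication; each gene was hit by three separate siRNAs, and active genes were retested.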 Entries without a mark were called inactive. The numbers tell different reagents against one gene apart. Not all columns of the deposit are shown. Not given: the amount of reagent.

Assay: 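Genome-wide screen for genes that prevent DNA re-replication in cancer cells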 (primary screen)
Cells: human HCT116 colorectal cancer cells
Reagent: single siRNA against human genes
Timing: 3 days
Detection: 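Imaged Hoechst DNA stain sorts each cell into a cycle phase by DNA amount; per plate, G2 fraction set to 0% for non-targeting and 100% for GMNN siRNA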
Reading the numbers: G2 robust z-score and G2 cells, % of GMNN control: higher = more G2 cells, more excess DNA replication
Hit rule: 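An siRNA counts as active if its G2 robust z-score lies at least 5 MADs above the screen median; here such calls match roughly 38% of GMNN control or more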

{"Gene": "SLC22A7", "siRNA no.": 1, "G2 robust z-score": -0.785, "G2 cells, % of GMNN control": -2.56}
{"Gene": "SLC22A7", "siRNA no.": 2, "G2 robust z-score": -0.574, "G2 cells, % of GMNN control": -1.07}
{"Gene": "SLC22A7", "siRNA no.": 3, "G2 robust z-score": -0.238, "G2 cells, % of GMNN control": 1.29}
{"Gene": "YIPF2 (Yip1 domain family member 2)", "siRNA no.": 1, "G2 robust z-score": -0.38, "G2 cells, % of GMNN control": 0.296}
{"Gene": "YIPF2 (Yip1 domain family member 2)", "siRNA no.": 2, "G2 robust z-score": -0.0639, "G2 cells, % of GMNN control": 2.52}
{"Gene": "YIPF2 (Yip1 domain family member 2)", "siRNA no.": 3, "G2 robust z-score": 3.28, "G2 cells, % of GMNN control": 26}
{"Gene": "CRMP1 (collapsin response mediator protein 1)", "siRNA no.": 1, "G2 robust z-score": 0.832, "G2 cells, % of GMNN control": 8.82}
{"Gene": "CRMP1 (collapsin response mediator protein 1)", "siRNA no.": 2, "G2 robust z-score": -0.777, "G2 cells, % of GMNN control": -2.5}
{"Gene": "CRMP1 (collapsin response mediator protein 1)", "siRNA no.": 3, "G2 robust z-score": 0.541, "G2 cells, % of GMNN control": 6.78}
{"Gene": "SPIRE1 (spire type actin nucleation factor 1)", "siRNA no.": 1, "G2 robust z-score": 0.682, "G2 cells, % of GMNN control": 7.77}
{"Gene": "SPIRE1 (spire type actin nucleation factor 1)", "siRNA no.": 2, "G2 robust z-score": 2.75, "G2 cells, % of GMNN control": 22.4}
{"Gene": "SPIRE1 (spire type actin nucleation factor 1)", "siRNA no.": 3, "G2 robust z-score": 2.15, "G2 cells, % of GMNN control": 18.1}
{"Gene": "ANGPTL8 (angiopoietin like 8)", "siRNA no.": 1, "G2 robust z-score": -1.01, "G2 cells, % of GMNN control": -4.16}
{"Gene": "ANGPTL8 (angiopoietin like 8)", "siRNA no.": 2, "G2 robust z-score": 0.743, "G2 cells, % of GMNN control": 8.2}
{"Gene": "ANGPTL8 (angiopoietin like 8)", "siRNA no.": 3, "G2 robust z-score": 0.0172, "G2 cells, % of GMNN control": 3.09}
{"Gene": "POP7 (POP7 ribonuclease P/MRP subunit)", "siRNA no.": 1, "G2 robust z-score": -1.3, "G2 cells, % of GMNN control": -6.19}
{"Gene": "POP7 (POP7 ribonuclease P/MRP subunit)", "siRNA no.": 2, "G2 robust z-score": -0.197, "G2 cells, % of GMNN control": 1.58}
{"Gene": "POP7 (POP7 ribonuclease P/MRP subunit)", "siRNA no.": 3, "G2 robust z-score": 3.82, "G2 cells, % of GMNN control": 29.9}
{"Gene": "ST14 (ST14 transmembrane serine protease matriptase)", "siRNA no.": 1, "G2 robust z-score": 0.656, "G2 cells, % of GMNN control": 7.58}
{"Gene": "ST14 (ST14 transmembrane serine protease matriptase)", "siRNA no.": 2, "G2 robust z-score": -1.45, "G2 cells, % of GMNN control": -7.21}
{"Gene": "ST14 (ST14 transmembrane serine protease matriptase)", "siRNA no.": 3, "G2 robust z-score": -0.311, "G2 cells, % of GMNN control": 0.781}
{"Gene": "ZNF513 (zinc finger protein 513)", "siRNA no.": 1, "G2 robust z-score": 1.88, "G2 cells, % of GMNN control": 16.2}
{"Gene": "ZNF513 (zinc finger protein 513)", "siRNA no.": 2, "G2 robust z-score": 0.899, "G2 cells, % of GMNN control": 9.29}
{"Gene": "ZNF513 (zinc finger protein 513)", "siRNA no.": 3, "G2 robust z-score": 1.45, "G2 cells, % of GMNN control": 13.2}

Entries above whose gene name starts with C or c (3):
{"Gene": "CRMP1 (collapsin response mediator protein 1)", "siRNA no.": 1, "G2 robust z-score": 0.832, "G2 cells, % of GMNN control": 8.82}
{"Gene": "CRMP1 (collapsin response mediator protein 1)", "siRNA no.": 2, "G2 robust z-score": -0.777, "G2 cells, % of GMNN control": -2.5}
{"Gene": "CRMP1 (collapsin response mediator protein 1)", "siRNA no.": 3, "G2 robust z-score": 0.541, "G2 cells, % of GMNN control": 6.78}
